Among the data in patent US20240319212A1, “METHOD OF MEASURING THE ENDOCYTIC VITAMIN D STATUS” (Immundiagnostik AG, priority 2018, published 2024) are binding values, retold here.

Amino acid sequences for entries named in this document (tags omitted). A change or cut given only in a name is not applied to a line headed by its entry.
UniProt P98164: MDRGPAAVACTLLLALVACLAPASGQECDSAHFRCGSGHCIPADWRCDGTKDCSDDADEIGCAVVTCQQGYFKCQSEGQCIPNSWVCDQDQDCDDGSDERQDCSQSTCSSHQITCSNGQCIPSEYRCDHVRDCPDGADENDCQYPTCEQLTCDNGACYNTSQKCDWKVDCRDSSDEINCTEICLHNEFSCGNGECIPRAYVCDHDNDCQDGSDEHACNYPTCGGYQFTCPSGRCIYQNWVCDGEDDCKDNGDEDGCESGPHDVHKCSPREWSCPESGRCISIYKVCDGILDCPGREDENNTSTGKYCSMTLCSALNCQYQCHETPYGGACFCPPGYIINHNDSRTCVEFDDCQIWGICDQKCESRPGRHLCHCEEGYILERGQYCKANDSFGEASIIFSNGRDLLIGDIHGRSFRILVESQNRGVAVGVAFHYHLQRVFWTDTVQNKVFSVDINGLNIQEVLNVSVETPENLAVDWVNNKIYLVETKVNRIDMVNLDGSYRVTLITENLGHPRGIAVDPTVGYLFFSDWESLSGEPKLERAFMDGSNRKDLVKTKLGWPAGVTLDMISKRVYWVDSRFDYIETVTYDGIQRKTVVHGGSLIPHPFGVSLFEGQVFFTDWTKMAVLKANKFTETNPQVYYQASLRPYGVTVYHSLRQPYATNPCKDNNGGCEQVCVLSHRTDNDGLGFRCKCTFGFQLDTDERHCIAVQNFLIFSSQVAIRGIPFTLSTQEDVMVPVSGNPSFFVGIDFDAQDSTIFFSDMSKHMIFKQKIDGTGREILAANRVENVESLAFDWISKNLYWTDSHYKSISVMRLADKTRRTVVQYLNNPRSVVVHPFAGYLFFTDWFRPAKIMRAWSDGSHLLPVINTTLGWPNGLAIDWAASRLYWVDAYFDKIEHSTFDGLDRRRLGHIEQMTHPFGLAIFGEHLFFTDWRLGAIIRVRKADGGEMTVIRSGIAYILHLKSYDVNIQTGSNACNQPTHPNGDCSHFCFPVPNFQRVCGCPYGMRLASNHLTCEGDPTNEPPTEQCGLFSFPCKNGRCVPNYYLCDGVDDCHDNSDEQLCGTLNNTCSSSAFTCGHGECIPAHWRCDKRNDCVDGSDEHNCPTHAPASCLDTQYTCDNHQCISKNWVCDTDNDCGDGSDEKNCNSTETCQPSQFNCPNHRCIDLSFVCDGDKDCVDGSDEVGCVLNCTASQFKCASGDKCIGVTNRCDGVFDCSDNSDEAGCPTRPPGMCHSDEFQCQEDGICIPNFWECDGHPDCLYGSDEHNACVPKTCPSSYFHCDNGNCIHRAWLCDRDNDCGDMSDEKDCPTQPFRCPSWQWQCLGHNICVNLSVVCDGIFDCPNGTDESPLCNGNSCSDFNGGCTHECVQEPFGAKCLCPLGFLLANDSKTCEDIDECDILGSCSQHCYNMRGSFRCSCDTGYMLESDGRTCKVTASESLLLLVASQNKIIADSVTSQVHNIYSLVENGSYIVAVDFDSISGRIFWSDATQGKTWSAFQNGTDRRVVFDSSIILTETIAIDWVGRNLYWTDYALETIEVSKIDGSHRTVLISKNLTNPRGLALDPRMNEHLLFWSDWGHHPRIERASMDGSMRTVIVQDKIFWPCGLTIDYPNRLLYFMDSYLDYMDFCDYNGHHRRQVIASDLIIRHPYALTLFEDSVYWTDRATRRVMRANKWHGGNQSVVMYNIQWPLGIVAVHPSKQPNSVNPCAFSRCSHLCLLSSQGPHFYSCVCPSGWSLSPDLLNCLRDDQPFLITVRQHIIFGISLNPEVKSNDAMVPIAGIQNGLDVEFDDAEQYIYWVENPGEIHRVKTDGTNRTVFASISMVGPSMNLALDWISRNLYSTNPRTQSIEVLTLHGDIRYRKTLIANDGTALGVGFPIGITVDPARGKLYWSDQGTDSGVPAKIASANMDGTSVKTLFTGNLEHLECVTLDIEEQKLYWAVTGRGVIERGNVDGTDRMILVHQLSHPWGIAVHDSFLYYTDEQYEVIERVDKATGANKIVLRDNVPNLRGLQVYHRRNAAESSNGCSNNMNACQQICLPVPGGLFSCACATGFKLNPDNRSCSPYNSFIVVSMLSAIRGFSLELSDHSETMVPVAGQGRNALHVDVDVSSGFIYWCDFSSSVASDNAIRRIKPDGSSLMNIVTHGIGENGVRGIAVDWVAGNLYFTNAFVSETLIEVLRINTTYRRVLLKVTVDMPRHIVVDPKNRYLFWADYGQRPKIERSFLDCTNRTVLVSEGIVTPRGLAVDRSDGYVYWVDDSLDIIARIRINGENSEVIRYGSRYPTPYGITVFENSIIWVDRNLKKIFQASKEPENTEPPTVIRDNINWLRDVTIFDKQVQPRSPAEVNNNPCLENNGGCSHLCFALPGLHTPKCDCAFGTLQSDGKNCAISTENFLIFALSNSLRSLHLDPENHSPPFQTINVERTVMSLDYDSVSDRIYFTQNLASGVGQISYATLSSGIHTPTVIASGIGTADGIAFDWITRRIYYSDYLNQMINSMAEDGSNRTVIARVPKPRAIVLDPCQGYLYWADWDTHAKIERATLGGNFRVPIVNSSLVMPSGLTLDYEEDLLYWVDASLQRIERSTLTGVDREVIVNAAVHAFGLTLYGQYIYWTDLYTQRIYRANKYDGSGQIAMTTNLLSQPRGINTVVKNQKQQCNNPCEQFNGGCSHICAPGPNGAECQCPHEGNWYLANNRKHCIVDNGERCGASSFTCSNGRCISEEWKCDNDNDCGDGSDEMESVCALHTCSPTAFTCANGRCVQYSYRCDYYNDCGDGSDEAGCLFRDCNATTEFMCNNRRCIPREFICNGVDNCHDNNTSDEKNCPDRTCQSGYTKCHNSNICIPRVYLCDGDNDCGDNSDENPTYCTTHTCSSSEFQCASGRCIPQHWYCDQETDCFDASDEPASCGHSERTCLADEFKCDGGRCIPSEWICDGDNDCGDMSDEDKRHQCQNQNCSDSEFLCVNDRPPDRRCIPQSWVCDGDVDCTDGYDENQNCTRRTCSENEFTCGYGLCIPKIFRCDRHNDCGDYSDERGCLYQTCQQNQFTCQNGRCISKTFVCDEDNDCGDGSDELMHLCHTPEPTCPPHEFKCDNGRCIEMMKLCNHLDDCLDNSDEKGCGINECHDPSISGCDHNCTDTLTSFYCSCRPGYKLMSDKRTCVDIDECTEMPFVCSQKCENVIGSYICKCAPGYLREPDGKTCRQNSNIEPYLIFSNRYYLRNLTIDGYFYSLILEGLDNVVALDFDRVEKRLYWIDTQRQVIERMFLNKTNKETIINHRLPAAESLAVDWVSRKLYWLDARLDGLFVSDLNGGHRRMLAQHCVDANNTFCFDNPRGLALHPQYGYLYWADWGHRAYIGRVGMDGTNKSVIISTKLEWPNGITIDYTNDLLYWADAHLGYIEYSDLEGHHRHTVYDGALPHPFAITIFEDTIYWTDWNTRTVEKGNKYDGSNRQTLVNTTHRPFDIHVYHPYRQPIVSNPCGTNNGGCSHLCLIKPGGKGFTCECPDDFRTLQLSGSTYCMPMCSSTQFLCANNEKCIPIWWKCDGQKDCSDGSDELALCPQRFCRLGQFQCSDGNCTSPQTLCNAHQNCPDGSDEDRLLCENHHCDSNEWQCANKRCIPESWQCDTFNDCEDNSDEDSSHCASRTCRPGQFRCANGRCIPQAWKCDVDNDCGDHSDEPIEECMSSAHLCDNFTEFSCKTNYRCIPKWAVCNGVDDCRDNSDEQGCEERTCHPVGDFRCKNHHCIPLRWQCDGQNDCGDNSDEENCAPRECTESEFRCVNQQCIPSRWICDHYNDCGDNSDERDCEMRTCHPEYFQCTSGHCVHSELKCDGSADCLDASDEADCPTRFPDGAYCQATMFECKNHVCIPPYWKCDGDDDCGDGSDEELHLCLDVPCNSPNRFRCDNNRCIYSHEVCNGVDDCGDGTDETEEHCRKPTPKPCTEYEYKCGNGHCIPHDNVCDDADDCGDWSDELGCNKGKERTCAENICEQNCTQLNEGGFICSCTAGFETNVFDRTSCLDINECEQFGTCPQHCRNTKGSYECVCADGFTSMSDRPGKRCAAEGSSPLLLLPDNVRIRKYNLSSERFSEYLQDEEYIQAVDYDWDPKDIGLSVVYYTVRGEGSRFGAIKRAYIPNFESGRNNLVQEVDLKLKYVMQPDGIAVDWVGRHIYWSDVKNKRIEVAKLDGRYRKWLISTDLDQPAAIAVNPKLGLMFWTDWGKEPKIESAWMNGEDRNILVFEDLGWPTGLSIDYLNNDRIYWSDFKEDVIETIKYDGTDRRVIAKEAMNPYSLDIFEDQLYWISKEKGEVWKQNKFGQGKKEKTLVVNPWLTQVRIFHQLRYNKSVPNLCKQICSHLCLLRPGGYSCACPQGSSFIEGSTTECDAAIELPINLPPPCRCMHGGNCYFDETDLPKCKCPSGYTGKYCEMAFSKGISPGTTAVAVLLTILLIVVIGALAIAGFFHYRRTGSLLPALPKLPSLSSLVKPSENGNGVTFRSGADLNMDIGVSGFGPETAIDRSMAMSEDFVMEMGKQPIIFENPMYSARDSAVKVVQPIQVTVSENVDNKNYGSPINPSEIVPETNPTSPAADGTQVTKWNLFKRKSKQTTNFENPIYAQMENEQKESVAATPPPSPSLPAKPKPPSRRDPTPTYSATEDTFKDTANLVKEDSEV

Results are given in words; binding and its absence hold for the method and conditions named. Some results given as binding are weak or reduced against the parent protein; the word gives no strength.

The target in the experiment is soluble recombinant megalin M2 fragment (amino acids 1024-1429 of human LRP2/megalin, C-terminal 6x His tag) (human) (UniProt P98164). The experiment is described as follows: peptide array of megalin M2 region; major binding epitopes of megalin ligands.

B1: Human PTH (ligand, UniProt P01270 32-115, looked up)
chain: SVSEIQLMHNLGKHLNSMERVEWLRKKLQDVHNFVALGAPLAPRDAGSQRPRKKEDNVLVESHEKSLGEADKADVNVLTKAKSQ
With B1, the binding result is recorded as “binds”.
